Publication PMC11150451
These are yes or no findings as the source states them, for the method shown. Binding seen in cells or lysates may run through a third protein.

Amino acid sequences for entries named in this document (tags omitted).
UniProt P52324: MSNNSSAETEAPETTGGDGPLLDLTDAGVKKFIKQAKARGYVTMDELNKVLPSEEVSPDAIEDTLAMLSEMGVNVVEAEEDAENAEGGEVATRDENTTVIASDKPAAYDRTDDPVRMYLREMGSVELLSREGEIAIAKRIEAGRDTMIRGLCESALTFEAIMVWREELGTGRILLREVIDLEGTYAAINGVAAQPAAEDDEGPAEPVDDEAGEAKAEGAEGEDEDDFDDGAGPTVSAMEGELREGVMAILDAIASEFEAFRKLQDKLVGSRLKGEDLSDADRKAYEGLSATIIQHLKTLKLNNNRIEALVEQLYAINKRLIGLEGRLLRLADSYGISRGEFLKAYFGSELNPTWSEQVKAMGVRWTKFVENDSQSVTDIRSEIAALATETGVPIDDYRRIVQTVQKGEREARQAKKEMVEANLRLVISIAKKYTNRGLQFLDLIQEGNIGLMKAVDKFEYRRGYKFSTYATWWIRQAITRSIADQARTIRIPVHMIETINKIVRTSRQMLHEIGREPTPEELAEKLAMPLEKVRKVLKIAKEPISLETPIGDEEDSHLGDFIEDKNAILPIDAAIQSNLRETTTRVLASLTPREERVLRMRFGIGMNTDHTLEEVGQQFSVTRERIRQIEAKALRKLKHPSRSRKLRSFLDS

Target: FLAG-tagged RpoD (sigma factor 70) (C. crescentus) (UniProt P52324)
Assay: co-IP; FLAG-tagged RpoD as bait on anti-FLAG magnetic beads (μMACS kit); stationary-phase C. crescentus lysate in 50 mM Tris-HCl pH 8, 150 mM NaCl, 1% Triton X-100, with Benzonase; immunoblots with anti-GafY, anti-ParB, anti-FLAG

B1: ParB (protein, UniProt B8GW30 1-304)
chain: MESVVVGEPGMSEGRRGLGRGLSALLGEVDAAPAQAPGEQLGGSREAPIEILQRNPDQPRRTFREEDLEDLSNSIREKGVLQPILVRPSPDTAGEYQIVAGERRWRAAQRAGLKTVPIMVRELDDLAVLEIGIIENVQRADLNVLEEALSYKVLMEKFERTQENIAQTIGKSRSHVANTMRLLALPDEVQSYLVSGELTAGHARAIAAAADPVALAKQIIEGGLSVRETEALARKAPNLSAGKSKGGRPPRVKDTDTQALESDLSSVLGLDVSIDHRGSTGTLTITYATLEQLDDLCNRLTRGI
binding: no binding
